{"source": "PubChem BioAssay AID720534", "about": "(National Center for Advancing Translational Sciences (NCATS), 2013)", "note": "About 990 (62%) of roughly 1,600 compounds were called active. So high a share suggests a set chosen from earlier hits. The inconclusive results got no clear call from the source; some entries with a clear call stand among them for comparison. Calls follow the shape of the dose curve; as a rule, active = well fitted inhibition curve with a large enough effect; inconclusive = small, poorly fitted or top-dose-only effect; inactive = no such curve, though single readings can be large or run the other way. Potencies beside an inconclusive call are fits to weak or partial responses and may not hold up."}
{"experiment": "qHTS for Inhibitors of TGF-b: Confirmation of Cherry Picks; also: nearly all actives have a fitted effect of over 65% in size; also: potency is read from the fitted curve at half-maximal effect", "details": "HepG2 CAGA-GFP TGF-b reporter, GFP fluorescence, 18 h, cells stimulated with TGF-beta, 500 pg/mL; activity, negative = inhibition: at 46.1 µM (top of the series)", "excerpt": "TGF-b is a main component in the TGF-b signaling pathway which plays diverse roles in cellular and development pathways. TGF-b is mediated through transcription factors called \"Smads\". Although the Smad-dependent pathway is the primary canonical TGF-b signaling mode, TGF-b1 can also activate alternative signaling pathways, including those involving MAPK (ERK, JNK and p38). This interaction may mediate or enhance Smad-dependent responses, or can exert Smad-independent effects. The complexity of this signaling cascade allows the TGF-b superfamily to perform unique, overlapping or redundant functions. We believe that targeting the TGF-beta pathway at the Smad-transcription factor level may eliminate the consequences of disrupting the entire pathway and offer specificity without affecting other signaling pathways. Smad3 is the primary transducer of TGF-b's signals and Smad3 regulates many functions attributed to TGF-b signaling. We hypothesize that Smad3 inhibitors will selectively eliminate Smad3-specific TGF-beta signals without undesired off-target effects. We aim to identify Smad3-small molecule antagonists using a quantitative high throughput screening (qHTS) approach. In this assay, hits identified from the primary screen were re-tested. MH087449NIH Chemical Genomics Center [NCGC] NIH Molecular Libraries Probe Centers Network [MLPCN] MLPCN Grant: MH087449 Assay Submitter (PI): Sushil Rane, National Institute of Diabetes and Kidney Diseases\nSuspensions of trypsinized HEPG2 CAGA-GFP cells were dispensed into white, tissue culture-treated, solid 1536-well plates at 5uL/well (1000 cells/well final concentration) in DMEM medium supplemented with 1% FBS. Plates were incubated at 37 degrees C for 2 hours, after which 23 nL of compounds or DMSO were delivered to each well using a pin tool. One uL of recombinant TGF-beta in DMEM (1% FBS) was then dispensed (500 pg/mL final concentration), and plates were incubated at 37 degrees C for 18 hours. The plates were measured on an Acumen eX3 Explorer plate reader for GFP fluorescence (ex488/em500-530). GFP values were calculated by determining the mean GFP fluorescence of individual cells, and compiling these values for each well to determine a total well GFP signal. The %Activity was determined from the corrected fluorescence values. A titration of the known TGF-B inhibitor SB431542 was included to monitor plate performance, while unstimulated HEPG2 (-TGF-B) control wells were used to normalize %Activity of identified inhibitors; unstimulated wells corresponded to 100%Activity (full inhibition), while stimulated cell controls (+DMSO) were used to normalize 0%Activity (no inhibition). Concentration-response curves were fitted to the signals arising from the resulting fluorescence. The concentration-effect curves were then classified based on curve quality (r2), response magnitude and degree of measured activity, and compounds were subsequently categorized based on their curve class."}
{"compound": "CCCCN=C[C@]12CCC(O)CC1(O)CCC1[C@@H]2CC[C@]2(C)[C@H](C3C=CC(=O)O3)CCC12O", "note": "(some centres undefined)", "Potency": "inconclusive: 18.4 µM [inhibitor, single point]"}
{"compound": "O=c1[nH]c2ccccc2n1C1CCN(C(c2ccccc2OC(F)(F)F)c2nnnn2-c2ccc3c(c2)OCCO3)CC1", "note": "(centres undefined)", "Potency": "inconclusive: 29.1 µM [inhibitor, single point]"}
{"compound": "Nc1nc(F)nc2c1ncn2[C@@H]1O[C@H](CO)[C@@H](O)[C@H]1O", "Potency": "active: 0.58 µM"}
{"compound": "O=C1NCN(c2ccccc2)C12CCN(C(c1ccccc1)c1nnnn1C1CCCC1)CC2", "note": "(centres undefined)", "Potency": "inconclusive: 20.6 µM [inhibitor, single point]"}
{"compound": "Clc1cccc(N2Cc3cc(-c4ccccc4)ccc3-n3nncc3C2)c1", "Potency": "active: 20.6 µM"}
{"compound": "CC1=CC(C)CC(C)OC(=O)CC(c2ccc(O)cc2)NC(=O)C(Cc2c(Br)[nH]c3ccccc23)N(C)C(=O)C(C)NC(=O)C(C)C1", "note": "(centres undefined)", "Potency": "inconclusive: 4.11 µM [inhibitor, partial curve, poor fit]"}
{"compound": "CN(C(=O)c1cccc(NC(=O)Cc2cccc([N+](=O)[O-])c2)c1)C1CCCCC1", "Potency": "active: 13 µM"}
{"compound": "CCN(CCCl)c1cc(CN(C)C)cc(NC(=O)c2ccc(C(=O)Nc3cc(CN(C)C)cc(N(CC)CCCl)c3)cc2)c1", "Potency": "active: 1.03 µM"}
{"compound": "Cc1[nH]c2ccc(OC(F)(F)F)cc2c1CCNCc1ccc(Cl)cc1", "Potency": "inconclusive: 29.1 µM [inhibitor, single point]"}
{"compound": "Cc1c(C=O)c2ccccc2n1Cc1ccc(F)cc1", "Potency": "active: 1.3 µM"}
{"compound": "O=C(CCN1CC2CCC(CC2)C1)c1cccs1", "Potency": "active: 2.59 µM"}
{"compound": "NC(=Nc1ccccc1)Nc1ccccc1", "Potency": "active: 9.2 µM"}
{"compound": "Oc1ccccc1-[n+]1c(-c2ccccc2)cc(-c2ccccc2)c(O)c1-c1ccccc1", "Potency": "inconclusive: 29.1 µM [inhibitor, single point]"}
{"compound": "COc1cc2c(c(OC)c1OC)-c1ccc(O)cc1[C@@H](NC(C)=O)CC2", "Potency": "inconclusive: 0.461 µM [inhibitor, full curve]"}
{"compound": "COC(=O)C1=C(c2ccc(F)cc2OCc2ccccc2)C[C@@H]2CC[C@H]1N2C(=O)NCc1ccccc1OC", "Potency": "inconclusive: 23.1 µM [inhibitor, partial curve]"}
{"compound": "CSCCC(c1nnnn1C1CCCCC1)N1CCC(n2c(=O)[nH]c3ccccc32)CC1", "note": "(centres undefined)", "Potency": "active: 25.9 µM"}
{"compound": "S=C(NCCc1ccccc1)N1Cc2cc(N3CCCCC3)ccc2-n2nncc2C1", "Potency": "inconclusive: 25.9 µM [inhibitor, partial curve, poor fit]"}
{"compound": "COc1ccc2[nH]c3c(c2c1)CCN1C(=O)C(CC(=O)NCc2cccc(C(F)(F)F)c2)C[C@H](C(=O)N2CCCCC2)[C@@]31C", "note": "(some centres undefined)", "Potency": "active: 8.2 µM"}
{"compound": "O=c1[nH]c2ccccc2n1C1CCN(C(c2cccs2)c2nnnn2-c2ccc3c(c2)OCCO3)CC1", "note": "(centres undefined)", "activity, negative = inhibition": "inactive: -83.5%"}
{"compound": "COc1ccc(-n2nnnc2C(CCc2ccccc2)N2CCC(n3c(=O)[nH]c4ccccc43)CC2)cc1", "note": "(centres undefined)", "Potency": "inconclusive: 6.51 µM [inhibitor, partial curve, poor fit]"}
{"compound": "O=c1c2ccccc2nc(/C=C/c2ccc([N+](=O)[O-])o2)n1-c1ccc(O)cc1", "activity, negative = inhibition": "inconclusive: -30.7% [inhibitor]"}
{"compound": "C[C@H]1CCC/C=C/[C@@H]2C[C@H](O)C[C@H]2[C@@H](O)/C=C/C(=O)O1", "Potency": "active: 0.058 µM"}
{"compound": "CC(=O)OC1(C)CC(C)C(=O)C(C(O)CC2CC(=O)NC(=O)C2)C1", "note": "(centres undefined)", "Potency": "active: 0.0517 µM"}
{"compound": "COc1ccc(C(c2nnnn2C2CCCCC2)N2CCC3(CC2)C(=O)NCN3c2ccccc2)cc1", "note": "(centres undefined)", "Potency": "inconclusive: 23.1 µM [inhibitor, single point]"}
{"compound": "Fc1cccc(-c2ccc3c(c2)CN(C(=S)NCCc2ccccc2)Cc2cnnn2-3)c1", "Potency": "inconclusive: 9.2 µM [inhibitor, partial curve]"}
{"compound": "COC(=O)C1=C(c2ccc(-c3ccccc3)c(F)c2)C[C@@H]2CC[C@H]1N2C(=O)NCc1cc(C)oc1C(F)(F)F", "Potency": "inconclusive: 9.2 µM [inhibitor, partial curve]"}
{"compound": "COC(=O)C1=C(c2ccc3ccccc3c2)C[C@@H]2CC[C@H]1N2C(=O)N1CCOCC1", "Potency": "inconclusive: 4.11 µM [inhibitor, partial curve, poor fit]"}
{"compound": "C=C(C)[C@@]12OC3(c4ccccc4)O[C@@H]1C1[C@@H]4O[C@]4(CO)[C@@H](O)[C@]4(O)C(=O)C(C)=C[C@H]4[C@@]1(O3)[C@H](C)[C@H]2OC(=O)/C=C/C=C/c1ccccc1", "note": "(some centres undefined)", "Potency": "inconclusive: 0.0016 µM [inhibitor, full curve, poor fit]"}
{"compound": "CC(C)c1ccc(N2C(=O)NC(=O)/C(=C\\C=C\\c3ccco3)C2=O)cc1", "Potency": "active: 4.11 µM"}
{"compound": "O=C1NCN(c2ccccc2)C12CCN(C(c1cccs1)c1nnnn1-c1ccc3c(c1)OCCO3)CC2", "note": "(centres undefined)", "Potency": "inconclusive: 23.1 µM [inhibitor, single point]"}
{"compound": "CC(C)c1oc(=O)cc2c1[C@@H](O)[C@H]1OC(=O)[C@@]3(C)C[C@@H](O)[C@@H](O)[C@@]2(C)C13", "note": "(some centres undefined)", "Potency": "active: 2.91 µM"}
{"compound": "CCCCn1c(N)c(C(=O)NCc2cccs2)c2nc3ccccc3nc21", "Potency": "inconclusive: 18.4 µM [inhibitor, single point]"}
{"compound": "O=C(Nc1ccc(Cl)cc1)Nc1ccc(Cl)c(Cl)c1", "Potency": "inconclusive: 20.6 µM [inhibitor, single point]"}
{"compound": "Nc1c2c(nc3sc4c(c13)CCCCC4)CCCC2", "Potency": "active: 14.6 µM"}
{"compound": "CCC1C(c2cc(OC)c(OC)c(OC)c2)c2cc3c(cc2OC1N1CCCC1)OCO3", "note": "(centres undefined)", "Potency": "inconclusive: 16.4 µM [inhibitor, partial curve]"}
{"compound": "O=C(c1cn(Cc2ccccc2F)c2ncccc12)C(F)(F)F", "Potency": "inconclusive: 3.26 µM [inhibitor, single point]"}
{"compound": "O=C1NCN(c2ccccc2)C12CCN(C(CCc1ccccc1)c1nnnn1-c1ccc3c(c1)OCCO3)CC2", "note": "(centres undefined)", "Potency": "inconclusive: 9.2 µM [inhibitor, partial curve]"}
{"compound": "CCCc1nc2ccc(Br)cc2c(=O)n1-c1ccc([N+](=O)[O-])c(C(F)(F)F)c1", "Potency": "inconclusive: 18.4 µM [inhibitor, single point]"}
{"compound": "COc1ccc(-n2nnnc2C(c2ccccc2)N2CCC(n3c(=O)[nH]c4ccccc43)CC2)cc1", "note": "(centres undefined)", "Potency": "inconclusive: 29.1 µM [inhibitor, single point]"}
